Results are given in words; binding and its absence hold for the method and conditions named. Binding seen in cells or lysates may run through a third protein. Some binding calls cover weakened binding; strength is not graded here.

Sequences of proteins named here, by UniProt entry; tags and fusion partners are left off. Residues count along the entry.
UniProt P09103, residues 20-509: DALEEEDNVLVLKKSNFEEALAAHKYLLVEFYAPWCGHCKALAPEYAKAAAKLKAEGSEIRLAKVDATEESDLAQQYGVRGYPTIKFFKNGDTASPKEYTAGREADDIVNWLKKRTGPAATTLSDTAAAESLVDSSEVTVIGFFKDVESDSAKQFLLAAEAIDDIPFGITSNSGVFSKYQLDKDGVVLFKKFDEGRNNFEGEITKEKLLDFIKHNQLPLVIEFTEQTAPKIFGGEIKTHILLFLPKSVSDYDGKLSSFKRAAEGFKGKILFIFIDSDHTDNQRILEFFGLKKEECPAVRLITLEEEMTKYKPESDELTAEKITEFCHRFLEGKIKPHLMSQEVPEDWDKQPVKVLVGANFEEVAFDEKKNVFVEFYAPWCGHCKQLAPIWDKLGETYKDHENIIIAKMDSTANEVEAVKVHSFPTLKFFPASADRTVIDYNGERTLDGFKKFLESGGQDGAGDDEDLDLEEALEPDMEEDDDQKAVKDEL
UniProt P48722: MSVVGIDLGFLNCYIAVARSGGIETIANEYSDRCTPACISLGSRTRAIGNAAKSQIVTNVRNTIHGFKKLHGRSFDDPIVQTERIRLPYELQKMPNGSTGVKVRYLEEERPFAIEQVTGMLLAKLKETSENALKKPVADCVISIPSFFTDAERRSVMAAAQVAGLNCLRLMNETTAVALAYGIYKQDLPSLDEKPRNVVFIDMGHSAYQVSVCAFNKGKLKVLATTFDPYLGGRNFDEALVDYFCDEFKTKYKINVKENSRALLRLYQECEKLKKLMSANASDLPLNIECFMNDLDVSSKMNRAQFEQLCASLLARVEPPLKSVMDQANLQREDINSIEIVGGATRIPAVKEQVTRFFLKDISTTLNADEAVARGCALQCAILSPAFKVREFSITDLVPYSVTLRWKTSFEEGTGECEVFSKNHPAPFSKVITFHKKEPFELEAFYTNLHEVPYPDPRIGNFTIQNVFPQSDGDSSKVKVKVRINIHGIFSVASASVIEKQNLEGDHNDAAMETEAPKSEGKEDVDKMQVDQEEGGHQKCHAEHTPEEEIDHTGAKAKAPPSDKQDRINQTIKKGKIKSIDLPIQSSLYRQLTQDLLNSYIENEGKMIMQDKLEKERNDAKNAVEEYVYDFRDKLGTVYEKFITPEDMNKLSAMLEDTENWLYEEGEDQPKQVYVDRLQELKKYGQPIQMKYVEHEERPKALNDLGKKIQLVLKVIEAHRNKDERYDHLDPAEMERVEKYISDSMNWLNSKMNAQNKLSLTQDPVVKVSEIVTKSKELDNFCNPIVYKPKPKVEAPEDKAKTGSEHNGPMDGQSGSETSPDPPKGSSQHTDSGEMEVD

The target of this assay is protein disulfide isomerase (mouse (endogenous in testes)) (UniProt P09103). Kind of assay: co-IP; anti-PDI antibody added to testes lysates of WT mice overnight at 4°C, protein G beads 2 hours, washed 3 times with lysis buffer (20 mM Tris-HCl, 150 mM NaCl pH 7.4, 1% Triton X-100, 1 mM EDTA, 0.5% sodium deoxycholate); partners detected by Western blotting.

Take HSPA4L (from UniProt P48722 1-838): the binding result is listed as “binds”.

The values are drawn from PMC11383184.
